The exact form of at least one protein or probe is not confirmed. A weaker result is weaker than the reference pair of the same experiment. Tags and fusion partners may be left off the protein sequences shown.
Molecular target: T1, NF-kB p50 (UniProt P19838)
T1 sequence (looked up, limits assumed): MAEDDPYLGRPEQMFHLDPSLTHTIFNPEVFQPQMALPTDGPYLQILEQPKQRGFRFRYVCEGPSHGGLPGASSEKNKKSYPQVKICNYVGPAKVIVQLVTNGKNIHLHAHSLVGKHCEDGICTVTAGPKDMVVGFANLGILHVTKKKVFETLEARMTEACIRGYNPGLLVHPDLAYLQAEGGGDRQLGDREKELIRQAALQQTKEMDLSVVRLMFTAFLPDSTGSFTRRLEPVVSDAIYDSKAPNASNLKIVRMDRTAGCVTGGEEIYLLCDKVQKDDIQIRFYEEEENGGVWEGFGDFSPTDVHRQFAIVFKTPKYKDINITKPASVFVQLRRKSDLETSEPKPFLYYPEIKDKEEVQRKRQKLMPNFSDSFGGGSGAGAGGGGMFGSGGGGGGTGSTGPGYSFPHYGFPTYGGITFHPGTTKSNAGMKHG
Assay: EMSA
Conditions: lower affinity than the 3' C probe; 1x DBB (from 5x): 10 mM Tris-HCl pH 7.5, 50 mM NaCl, 0.5 mM EDTA, 3 mM MgCl2, 1% glycerol, 0.5 mg/ml BSA, 0.05% NP-40, 0.01 mM DTT; room temperature 60 min; commercial protein; label: biotin at ends

Question: Does “AGTTGAGGGGACTTTCCTAGGC (double strand) [probe a (GGGACTTTCCT)]” bind?
Answer: binds more weakly

Source: publication PMC3794954, “An Improved SELEX-Seq Strategy for Characterizing DNA-Binding Specificity of Transcription Factor: NF-κB as an Example”
